According to article PMC2263068:
Results are given in words; binding and its absence hold for the method and conditions named. For part of these data: Binding seen in cells or lysates may run through a third protein. Some results given as binding are weak or reduced against the parent protein; the word gives no strength. For part of these data: Where a sequence is shown, tags or fusion partners need not be part of it.

Protein sequences, listed by entry. Tags and fused reporters are not part of them. Residues count along the entry.
UniProt Q09472, residues 566-645: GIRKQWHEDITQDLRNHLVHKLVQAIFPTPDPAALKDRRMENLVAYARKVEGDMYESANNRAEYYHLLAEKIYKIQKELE
UniProt P35222: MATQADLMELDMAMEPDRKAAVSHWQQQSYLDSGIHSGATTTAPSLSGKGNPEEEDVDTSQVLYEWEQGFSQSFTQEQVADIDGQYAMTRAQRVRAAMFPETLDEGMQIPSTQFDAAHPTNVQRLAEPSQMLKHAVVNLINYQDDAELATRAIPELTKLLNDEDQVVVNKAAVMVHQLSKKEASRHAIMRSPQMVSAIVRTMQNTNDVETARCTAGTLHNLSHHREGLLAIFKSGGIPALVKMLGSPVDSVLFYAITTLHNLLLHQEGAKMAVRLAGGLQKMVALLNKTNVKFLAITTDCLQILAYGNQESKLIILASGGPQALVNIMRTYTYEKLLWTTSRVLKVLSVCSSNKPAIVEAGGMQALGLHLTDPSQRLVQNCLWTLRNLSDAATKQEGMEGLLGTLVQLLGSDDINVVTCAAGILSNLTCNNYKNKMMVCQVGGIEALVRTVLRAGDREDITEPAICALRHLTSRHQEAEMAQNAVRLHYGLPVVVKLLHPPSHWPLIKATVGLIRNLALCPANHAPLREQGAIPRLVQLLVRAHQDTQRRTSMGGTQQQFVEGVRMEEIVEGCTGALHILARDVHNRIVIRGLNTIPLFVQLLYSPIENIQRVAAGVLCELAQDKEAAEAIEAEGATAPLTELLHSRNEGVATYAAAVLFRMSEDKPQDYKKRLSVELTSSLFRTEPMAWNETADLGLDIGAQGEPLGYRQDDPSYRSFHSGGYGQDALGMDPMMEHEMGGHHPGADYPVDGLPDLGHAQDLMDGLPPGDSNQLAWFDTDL
UniProt Q61026: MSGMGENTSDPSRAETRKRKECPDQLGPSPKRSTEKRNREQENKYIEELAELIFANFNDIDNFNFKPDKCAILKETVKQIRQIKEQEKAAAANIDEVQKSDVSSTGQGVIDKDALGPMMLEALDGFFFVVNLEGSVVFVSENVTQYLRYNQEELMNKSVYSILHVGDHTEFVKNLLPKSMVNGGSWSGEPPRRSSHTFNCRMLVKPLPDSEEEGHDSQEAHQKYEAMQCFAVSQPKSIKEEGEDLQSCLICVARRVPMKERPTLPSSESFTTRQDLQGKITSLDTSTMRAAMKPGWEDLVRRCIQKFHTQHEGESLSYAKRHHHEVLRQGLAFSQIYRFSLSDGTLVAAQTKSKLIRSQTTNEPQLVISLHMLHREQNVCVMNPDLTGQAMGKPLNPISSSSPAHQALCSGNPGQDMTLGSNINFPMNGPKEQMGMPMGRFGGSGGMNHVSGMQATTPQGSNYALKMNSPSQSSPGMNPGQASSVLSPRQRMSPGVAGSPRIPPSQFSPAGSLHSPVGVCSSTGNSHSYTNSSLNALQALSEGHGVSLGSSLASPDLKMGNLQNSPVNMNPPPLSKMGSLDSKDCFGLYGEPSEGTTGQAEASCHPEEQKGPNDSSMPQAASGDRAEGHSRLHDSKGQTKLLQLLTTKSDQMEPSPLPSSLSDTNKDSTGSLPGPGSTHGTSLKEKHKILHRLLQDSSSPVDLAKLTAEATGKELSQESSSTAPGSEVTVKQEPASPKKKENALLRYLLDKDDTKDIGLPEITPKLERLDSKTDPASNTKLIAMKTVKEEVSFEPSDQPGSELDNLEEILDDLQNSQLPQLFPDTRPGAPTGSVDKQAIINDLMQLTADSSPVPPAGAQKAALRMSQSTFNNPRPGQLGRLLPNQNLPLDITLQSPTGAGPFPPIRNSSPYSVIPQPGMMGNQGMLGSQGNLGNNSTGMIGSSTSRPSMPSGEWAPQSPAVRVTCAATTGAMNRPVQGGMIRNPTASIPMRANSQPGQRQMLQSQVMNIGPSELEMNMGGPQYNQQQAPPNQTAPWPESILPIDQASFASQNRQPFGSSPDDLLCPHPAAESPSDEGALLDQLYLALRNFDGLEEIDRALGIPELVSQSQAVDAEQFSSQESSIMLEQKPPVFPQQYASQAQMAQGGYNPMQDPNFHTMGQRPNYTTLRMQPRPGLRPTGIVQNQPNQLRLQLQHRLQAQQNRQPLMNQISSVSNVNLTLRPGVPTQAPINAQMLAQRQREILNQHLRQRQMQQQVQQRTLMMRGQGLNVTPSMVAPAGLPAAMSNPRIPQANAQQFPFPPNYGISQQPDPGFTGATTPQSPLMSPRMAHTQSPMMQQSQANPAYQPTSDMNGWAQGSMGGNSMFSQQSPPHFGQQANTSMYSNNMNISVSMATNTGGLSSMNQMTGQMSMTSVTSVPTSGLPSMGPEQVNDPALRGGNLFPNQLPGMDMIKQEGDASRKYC
UniProt O75925: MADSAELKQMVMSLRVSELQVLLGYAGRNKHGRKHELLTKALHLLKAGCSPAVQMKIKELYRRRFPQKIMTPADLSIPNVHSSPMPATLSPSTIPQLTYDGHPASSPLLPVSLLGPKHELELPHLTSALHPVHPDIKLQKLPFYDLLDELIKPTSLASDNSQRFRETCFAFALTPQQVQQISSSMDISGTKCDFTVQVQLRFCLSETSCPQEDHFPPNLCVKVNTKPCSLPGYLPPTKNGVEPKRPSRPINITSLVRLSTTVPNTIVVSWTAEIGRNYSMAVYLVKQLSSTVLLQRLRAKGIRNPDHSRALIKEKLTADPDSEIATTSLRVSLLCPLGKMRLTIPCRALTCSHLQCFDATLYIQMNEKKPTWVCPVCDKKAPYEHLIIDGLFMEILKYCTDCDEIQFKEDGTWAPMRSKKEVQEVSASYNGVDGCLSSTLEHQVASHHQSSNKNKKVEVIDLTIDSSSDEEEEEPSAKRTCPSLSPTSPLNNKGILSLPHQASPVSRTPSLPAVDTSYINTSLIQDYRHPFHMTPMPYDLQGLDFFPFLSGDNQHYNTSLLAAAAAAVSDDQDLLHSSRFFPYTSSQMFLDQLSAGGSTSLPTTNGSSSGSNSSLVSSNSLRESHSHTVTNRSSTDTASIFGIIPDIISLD

T1: GST-CoCoA(470–691) fusion protein (UniProt Q8CGU1)
T1 sequence: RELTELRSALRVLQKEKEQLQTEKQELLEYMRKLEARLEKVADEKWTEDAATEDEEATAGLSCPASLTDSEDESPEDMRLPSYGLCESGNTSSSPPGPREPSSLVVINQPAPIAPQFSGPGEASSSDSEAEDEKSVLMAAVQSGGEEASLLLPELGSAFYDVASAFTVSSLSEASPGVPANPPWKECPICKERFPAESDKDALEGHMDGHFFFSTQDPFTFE


Experiments:
GST-p300 KIX fragment = GST-p300 KIX fragment (UniProt Q09472); assay: pull-down; GST fusion protein bound to glutathione-Sepharose, incubated with in vitro-translated protein; bound proteins eluted and analysed by immunoblot with anti-HA antibody or autoradiography; only the target purified
GST-β-catenin = GST-β-catenin (UniProt P35222); assay: as above
[1] = target: T1, GST-CoCoA(470–691) fusion protein; assay: as above
[2] = target: coiled-coil coactivator (CoCoA), wild type (UniProt Q8CGU1); assay: co-IP; data not shown
[3] = target: glucocorticoid receptor interacting protein 1 (GRIP1) (UniProt Q61026); assay: co-IP; data not shown
[4] = target: protein inhibitor of activated STAT 1 (PIAS1) (UniProt O75925); assay: co-IP; in vivo; data not shown
[5] = target: coiled-coil coactivator (CoCoA), wild type (UniProt Q8CGU1); assay: two-hybrid; mammalian two-hybrid; data not shown
[6] = target: glucocorticoid receptor interacting protein 1 (GRIP1) (UniProt Q61026); assay: two-hybrid; mammalian two-hybrid; data not shown
K29R mutant of CoCoA [7] = target: K29R mutant of CoCoA (UniProt Q8CGU1); assay: co-IP; data not shown
K29R mutant of CoCoA [8] = target: K29R mutant of CoCoA (UniProt Q8CGU1); assay: two-hybrid; mammalian two-hybrid; data not shown

binding (GST-p300 KIX fragment)	binding (GST-β-catenin)	binding [1]	binding [2]	binding [3]	binding [4]	binding [5]	binding [6]	binding (K29R mutant of CoCoA [7])	binding (K29R mutant of CoCoA [8])	Binder
binds	binds	binds	–	–	–	–	–	–	–	HA-tagged CoCoA(1–190) wild type (domain or fragment, UniProt Q8CGU1 1-190) MEESSLSRAPSRGGVNFLNVARTYIPNTKVECHYTLPPGTMPSASDWIGIFKVEAACVRDYHTFVWSSVPESTTDGSPTHASVQFQASYLPKPGAQLYQFRYVNRQGRVCGQSPPFQFREPRPMDELVTLEEADGGSDILLVVPKATVLQNQLDESQQERNDLMQLKLQLEDQVTELRSRVQELEAALAT
binds	binds	binds	–	–	–	–	–	–	–	HA-tagged CoCoA(1–190, K29R) (domain or fragment, UniProt Q8CGU1 1-190) MEESSLSRAPSRGGVNFLNVARTYIPNTRVECHYTLPPGTMPSASDWIGIFKVEAACVRDYHTFVWSSVPESTTDGSPTHASVQFQASYLPKPGAQLYQFRYVNRQGRVCGQSPPFQFREPRPMDELVTLEEADGGSDILLVVPKATVLQNQLDESQQERNDLMQLKLQLEDQVTELRSRVQELEAALAT
–	–	–	binds	binds	binds	binds	binds	–	–	coiled-coil coactivator (CoCoA), wild type (protein, UniProt Q8CGU1 1-691) MEESSLSRAPSRGGVNFLNVARTYIPNTKVECHYTLPPGTMPSASDWIGIFKVEAACVRDYHTFVWSSVPESTTDGSPTHASVQFQASYLPKPGAQLYQFRYVNRQGRVCGQSPPFQFREPRPMDELVTLEEADGGSDILLVVPKATVLQNQLDESQQERNDLMQLKLQLEDQVTELRSRVQELEAALATARQEHSELTEQYKGLSRSHGELSEERDILSQQQGDHVARILELEDDIQTMSDKVLMKEVELDRVRDTVKALTREQEKLLRQLKEFQADKEQSEAELQTVREENCCLNTELEEAKSRQEEQGAQVQRLKDKLAHMKDTLGQAQQKVAELEPLKEQLRGVQELAASSQQKAALLGEELASAAGARDRTIAELHRSRLEVAEVNGRLAELSLHMKEEKCQWSKERTGLLQSMEAEKDKILKLSAEILRLEKTVQEERTQSHVFKTELAREKDSSLVQLSESKRELTELRSALRVLQKEKEQLQTEKQELLEYMRKLEARLEKVADEKWTEDAATEDEEATAGLSCPASLTDSEDESPEDMRLPSYGLCESGNTSSSPPGPREPSSLVVINQPAPIAPQFSGPGEASSSDSEAEDEKSVLMAAVQSGGEEASLLLPELGSAFYDVASAFTVSSLSEASPGVPANPPWKECPICKERFPAESDKDALEGHMDGHFFFSTQDPFTFE
–	–	–	–	binds	–	–	binds	binds	binds	K29R mutant of CoCoA (protein, UniProt Q8CGU1 1-691) MEESSLSRAPSRGGVNFLNVARTYIPNTRVECHYTLPPGTMPSASDWIGIFKVEAACVRDYHTFVWSSVPESTTDGSPTHASVQFQASYLPKPGAQLYQFRYVNRQGRVCGQSPPFQFREPRPMDELVTLEEADGGSDILLVVPKATVLQNQLDESQQERNDLMQLKLQLEDQVTELRSRVQELEAALATARQEHSELTEQYKGLSRSHGELSEERDILSQQQGDHVARILELEDDIQTMSDKVLMKEVELDRVRDTVKALTREQEKLLRQLKEFQADKEQSEAELQTVREENCCLNTELEEAKSRQEEQGAQVQRLKDKLAHMKDTLGQAQQKVAELEPLKEQLRGVQELAASSQQKAALLGEELASAAGARDRTIAELHRSRLEVAEVNGRLAELSLHMKEEKCQWSKERTGLLQSMEAEKDKILKLSAEILRLEKTVQEERTQSHVFKTELAREKDSSLVQLSESKRELTELRSALRVLQKEKEQLQTEKQELLEYMRKLEARLEKVADEKWTEDAATEDEEATAGLSCPASLTDSEDESPEDMRLPSYGLCESGNTSSSPPGPREPSSLVVINQPAPIAPQFSGPGEASSSDSEAEDEKSVLMAAVQSGGEEASLLLPELGSAFYDVASAFTVSSLSEASPGVPANPPWKECPICKERFPAESDKDALEGHMDGHFFFSTQDPFTFE
